Some of the results follow. These are further read-outs of the screen, such as a control signal, another cell line or another target. No call is given for them. Compounds called inactive in the main read-out are mostly missing here. Words in brackets tell the shape of the fitted curve; partial curves, single points and poor fits give uncertain potencies.
Experiment: qHTS Assay to Find Inhibitors of Chronic Active B-Cell Receptor Signaling
Settings: ABC-DLBCL IkBa-CBG/CBR reporter, luminescence ratio (green luciferase fused to IkBa over red control in TMD8 lymphoma cells), 4 h
Summary of the method: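 Compounds up to 46 uM were incubated four hours with TMD8 cells whose green CBG68 luciferase is fused to IkappaBalpha; red CBR luminescence normalised the signal, and concentration-effect curves were fitted to fusion, red and ratio data.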

[1] = measured here: CBR red luminescence, cell number
[2] = measured here: IkBa-CBG green luminescence

SMILES	AC50 [1]	AC50 [2]
CCOc1ccc(NC(=O)CN(C)C(=O)c2sc3ccccc3c2Cl)cc1OCC	2.06 µM [rising, full curve, poor fit]	–
Cc1cccc(NC(=O)c2cc(-c3cc(C)c(C)cc3O)n[nH]2)c1	7.94 µM [falling, full curve, poor fit]	–
CCC/C(O)=C1\C(=O)CC(C)(C)CC1=Nc1ccc(OC)cc1OC	35.5 µM [falling, single point]	–
COC(=O)C1CSC(C(=O)OC)N1C(=O)CN1CC(C)OC(C)C1 (centres undefined)	11.6 µM [falling, partial curve, poor fit]	–
O=C(CSc1nc(=O)n(Cc2cccnc2)c2c1CCC2)Nc1cccc(Cl)c1	0.891 µM [falling, partial curve, poor fit]	15.8 µM [rising, partial curve, poor fit]
Cc1ccc(Nc2nc(CSc3nnc(-c4cccs4)o3)cs2)cc1	3.66 µM [falling, single point]	–
O=C(COC(=O)c1cc([N+](=O)[O-])ccc1NCCO)c1ccccc1	18.4 µM [rising, partial curve, poor fit]	–
CC(=O)c1ccc(NC(=O)c2cccs2)cc1	13 µM [falling, partial curve, poor fit]	–
CCC(=O)N/C(N)=N/c1nc2ccccc2o1	11.2 µM [falling, partial curve, poor fit]	–
COc1ccc(C(=O)O)cc1NC(=S)NC(=O)/C=C/c1ccc(C(C)C)cc1	14.1 µM [falling, partial curve, poor fit]	–
O=C(NNC(=O)C1C2C=CC(C2)C1C(=O)O)c1cc(Cl)ccc1O (centres undefined)	1.26 µM [falling, full curve]	–
O=C(CSC(=S)N1CCSCC1)c1ccccc1	20 µM [falling, single point]	–
N#CC1=C(N)SC(N)=C(C#N)C1c1cccc(Oc2ccccc2)c1	20.6 µM [falling, single point]	–
CCCC(=O)Nc1ccc(C(=O)n2nnc3ccccc32)cc1	6.51 µM [falling, single point]	–
CCOC(=O)c1sc(NC(=O)C2CSC3(C)CCC(=O)N23)nc1C (centres undefined)	2.59 µM [falling, partial curve, poor fit]	–
O=C(O)CCN1C(=O)/C(=C\c2cccc(Oc3ccccc3)c2)SC1=S	2.51 µM [falling, partial curve, poor fit]	–
CC(Oc1ccc(F)cc1)C(=O)Nc1ccccc1C(=O)N1CCCCC1 (centres undefined)	10.3 µM [rising, partial curve]	–
CCCC(=O)Nc1sc2c(c1C#N)CCCC2	29.1 µM [rising, single point]	–
Cc1cc(N2CCN(c3ccccc3)CC2)nc(-n2nc(C)cc2C)n1	35.5 µM [rising, single point]	–
CCOC(=O)C1=C(N)OC2=C(C(=O)CC(C)(C)C2)C1c1ccc(C)s1 (centres undefined)	15.8 µM [rising, single point]	–
O=C(O)C1C(C(=O)Nc2ccc(Cl)cc2)C2C=CC1C21CC1 (centres undefined)	23.1 µM [rising, partial curve, poor fit]	–

Complete entries as entered above:
CCOC(=O)C1=C(N)OC2=C(C(=O)CC(C)(C)C2)C1c1ccc(C)s1 (centres undefined) is listed with AC50 [1]: 15.8 µM [rising, single point]
CC(Oc1ccc(F)cc1)C(=O)Nc1ccccc1C(=O)N1CCCCC1 (centres undefined) is listed with AC50 [1]: 10.3 µM [rising, partial curve]

Next part

SMILES	AC50 [1]	AC50 [2]
CC1C/C(=C/c2ccccn2)C(=O)/C(=C/c2ccccn2)C1 (centres undefined)	7.08 µM [falling, full curve]	–
Cc1nnc(SCCn2c(N3CC(C)CC(C)C3)nc3c2c(=O)[nH]c(=O)n3C)s1 (centres undefined)	6.51 µM [rising, single point]	–
CCn1nc(C)cc1C(=O)N1CCCC(C(=O)c2ccc(Oc3ccccc3)cc2)C1 (centres undefined)	12.6 µM [falling, partial curve, poor fit]	–
CN1C(=O)c2ccc(NC(=O)c3c(F)c(F)c(F)c(F)c3F)cc2C1=O	0.58 µM [falling, partial curve, poor fit]	–
COc1cc(C(=O)N/C(=C\c2cn(S(=O)(=O)N(C)C)c3ccccc23)C(=O)NCCCO)cc(OC)c1OC	6.31 µM [rising, single point]	–
CC(C)Oc1ccc(C(=O)N2CCN(c3nc4c(F)cc(F)cc4s3)CC2)cc1	35.5 µM [rising, single point]	–
COc1cc(C(c2nnnn2C(C)(C)C)N2CCN(c3nc4ccccc4s3)CC2)ccc1O (centres undefined)	11.2 µM [falling, partial curve, poor fit]	–
COc1ccc(C(=O)COC(=O)CCn2nnc(-c3cccc(O)c3OC)n2)cc1	17.8 µM [rising, partial curve, poor fit]	–
O=[N+]([O-])CC(=Nc1ccc(F)cc1)N/N=C\c1oc(O)c2ccccc12	12.6 µM [falling, partial curve]	–
O=C(NCc1ccccn1)c1ccc2c(c1)N(Cc1ccccc1)CCS2	0.0891 µM [falling, full curve, poor fit]	–
Cc1[nH]c2ccccc2c1N=Nc1ccc(F)cc1	2.82 µM [rising, partial curve, poor fit]	–
O=C1C(NS(=O)(=O)c2cccs2)=C(N2CCN(c3cccc(C(F)(F)F)c3)CC2)C(=O)c2ccccc21	6.51 µM [rising, single point]	–
Cc1[nH]c2ccccc2c1SCC(=O)NNC(=O)Nc1ccc(OC(F)(F)F)cc1	17.8 µM [falling, partial curve, poor fit]	–
O=C(Nc1cccc2cccnc12)c1ccc(Br)cc1Br	8.91 µM [rising, partial curve]	–
CCC(=O)N1CCCc2cc(S(=O)(=O)N3CCN(c4ccccc4F)CC3)ccc21	23.1 µM [falling, single point]	–
Cc1csc(NC(=O)c2ccc(S(=O)(=O)N3CCN(C)CC3)cc2)n1	5.62 µM [falling, partial curve, poor fit]	–
c1ccc(OCCn2c(-c3ccco3)nc3ccccc32)cc1	6.31 µM [falling, partial curve]	–
CCCCn1nnnc1SCC(=O)Nc1ccc(N(C)C)cc1	0.146 µM [rising, full curve, poor fit]	–
COc1ccc(C2OC(=O)CC2C(=O)NCc2ccccc2Cl)cc1OC (centres undefined)	12.6 µM [rising, partial curve, poor fit]	–
CCn1cnc2scc(-c3ccc(C)c(C)c3)c2c1=O	20 µM [falling, partial curve, poor fit]	–
COC(=O)c1cc2ccccc2n1Cc1ccc(Cl)nc1	0.398 µM [rising, full curve, poor fit]	–

SMILES	AC50 [1]	AC50 [2]
Cn1c(OCc2ccco2)nc2c1c(=O)n(Cc1ccc(Cl)c(Cl)c1)c(=O)n2C	25.9 µM [falling, single point]	–
N#Cc1c(Nc2ccc(F)cc2)sc(C(=O)c2ccccc2)c1N	1.03 µM [rising, partial curve, poor fit]	–
Cc1nc2cc(N3CCOCC3)c(NC(=O)C3CC3)cc2c(=O)n1Cc1ccccc1	35.5 µM [rising, single point]	–
Cc1cc(C)c(S(=O)(=O)/N=C2\C=C(Nc3ccc(C(=O)O)cc3)C(=O)c3ccccc32)c(C)c1	1.78 µM [falling, full curve]	–
COc1ccc(-c2nnn(CC(=O)N(CC(=O)NC3CCCC3)c3cccc(C)c3)n2)cc1OC	6.31 µM [falling, single point]	–
c1ccc(-c2cc3nccc(-c4ccccn4)n3n2)cc1	29.1 µM [falling, single point]	–
CCN(CC)CCN1C(=O)C(=O)/C(=C(/O)c2c(C)[nH]c(C(=O)OC)c2C)C1c1cccc(OC)c1 (centres undefined)	12.6 µM [falling, partial curve]	–
[N-]=C=C1C(=S)NC(=O)[C@H]([n+]2ccccc2)[C@H]1c1ccc(Cl)cc1	0.282 µM [falling, full curve, poor fit]	–
Cn1c(=O)c2c(ncn2CC(=O)OCC(=O)Nc2ccc(F)cc2Cl)n(C)c1=O	3.26 µM [rising, full curve, poor fit]	–
Cn1nnc2cc(C(=O)N3CCC(c4ccccc4)C3)ccc21 (centres undefined)	5.8 µM [rising, full curve, poor fit]	–
CCOc1cc(/C=N\Nc2ncc(F)c(N3CCOCC3)n2)ccc1Oc1nc(Cl)ncc1F	20 µM [falling, single point]	–
CN(C)S(=O)(=O)Oc1ccsc1C(=O)Nc1ccc(C(F)(F)F)cc1	1 µM [rising, partial curve, poor fit]	–
CCNC(=S)NNC(=O)c1csc2ccccc12	15.8 µM [falling, single point]	–
Cc1cc(C)c2c(N)c(C(=O)NN3CC(=O)N(c4cccc(Cl)c4)CC3=O)sc2n1	7.94 µM [falling, partial curve, poor fit]	–
COC(=O)COc1cccc(/C=N/NC(=O)CCSc2ccccc2)c1	35.5 µM [falling, single point]	–
CC(C)c1ccc(-c2nc3c([nH]2)c(=O)n(C)c(=O)n3C)cc1	0.058 µM [falling, full curve, poor fit]	–
Cc1cccc(NC(=S)NC(=O)c2cccs2)n1	0.1 µM [rising, full curve, poor fit]	28.2 µM [falling, single point]
O=C(Nc1cccc(O)c1)C(=O)Nc1ccccn1	0.291 µM [falling, full curve]	–
CCNc1nc(CSc2ccccc2)nc2sc(C)c(C)c12	1.84 µM [rising, partial curve, poor fit]	–
CCOC(=O)C1C(=O)NC(c2ccccc2)=NC1c1cccc(Br)c1 (centres undefined)	0.631 µM [rising, full curve, poor fit]	–

— PubChem BioAssay AID493014 (National Center for Advancing Translational Sciences (NCATS), 2011)
